Results reported in the supplement of paper PMC10849652.
This is one part of the list.

Sequences of proteins named here, by UniProt entry; tags and fusion partners are left off. A change or cut given only in a name is not applied to a line headed by its entry.
UniProt Q5TGZ0: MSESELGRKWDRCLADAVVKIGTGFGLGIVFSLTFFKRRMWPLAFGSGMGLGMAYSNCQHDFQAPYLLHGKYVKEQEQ
UniProt Q96T76: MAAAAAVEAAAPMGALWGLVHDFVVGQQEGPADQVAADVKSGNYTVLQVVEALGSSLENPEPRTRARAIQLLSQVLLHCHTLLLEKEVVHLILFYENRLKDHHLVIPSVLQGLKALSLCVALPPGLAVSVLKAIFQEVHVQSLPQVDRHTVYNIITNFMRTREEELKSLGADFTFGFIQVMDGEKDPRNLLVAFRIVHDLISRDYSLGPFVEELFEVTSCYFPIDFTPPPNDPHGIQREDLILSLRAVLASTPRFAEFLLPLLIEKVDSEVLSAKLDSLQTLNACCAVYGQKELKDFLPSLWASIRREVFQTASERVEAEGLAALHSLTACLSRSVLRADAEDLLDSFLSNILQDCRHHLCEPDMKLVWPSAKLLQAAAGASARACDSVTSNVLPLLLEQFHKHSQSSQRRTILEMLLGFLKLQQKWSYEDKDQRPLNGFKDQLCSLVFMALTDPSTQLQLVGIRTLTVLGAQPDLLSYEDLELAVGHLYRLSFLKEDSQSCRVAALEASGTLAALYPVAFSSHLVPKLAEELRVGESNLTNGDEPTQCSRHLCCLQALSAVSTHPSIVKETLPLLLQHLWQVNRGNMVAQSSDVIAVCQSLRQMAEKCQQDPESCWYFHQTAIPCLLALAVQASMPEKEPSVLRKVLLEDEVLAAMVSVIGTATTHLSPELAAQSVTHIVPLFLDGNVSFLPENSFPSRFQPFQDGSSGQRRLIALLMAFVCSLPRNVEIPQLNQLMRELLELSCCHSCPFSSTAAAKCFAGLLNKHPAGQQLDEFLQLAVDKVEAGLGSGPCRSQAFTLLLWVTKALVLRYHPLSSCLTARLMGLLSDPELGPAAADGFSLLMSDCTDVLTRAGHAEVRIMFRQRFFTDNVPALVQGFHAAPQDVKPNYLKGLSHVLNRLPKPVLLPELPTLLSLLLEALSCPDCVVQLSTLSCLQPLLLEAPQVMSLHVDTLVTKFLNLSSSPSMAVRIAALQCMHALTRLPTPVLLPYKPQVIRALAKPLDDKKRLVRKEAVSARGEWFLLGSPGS
UniProt Q6NTE8: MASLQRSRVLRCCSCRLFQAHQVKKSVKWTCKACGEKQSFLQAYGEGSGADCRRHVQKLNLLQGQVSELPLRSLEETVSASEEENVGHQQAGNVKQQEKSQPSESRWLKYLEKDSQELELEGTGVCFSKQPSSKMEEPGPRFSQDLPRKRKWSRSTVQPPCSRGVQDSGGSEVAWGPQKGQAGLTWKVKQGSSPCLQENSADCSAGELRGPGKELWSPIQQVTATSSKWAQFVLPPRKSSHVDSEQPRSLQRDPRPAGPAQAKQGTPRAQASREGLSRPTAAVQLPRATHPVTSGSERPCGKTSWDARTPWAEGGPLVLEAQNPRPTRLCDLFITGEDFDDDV
UniProt Q9BWT6: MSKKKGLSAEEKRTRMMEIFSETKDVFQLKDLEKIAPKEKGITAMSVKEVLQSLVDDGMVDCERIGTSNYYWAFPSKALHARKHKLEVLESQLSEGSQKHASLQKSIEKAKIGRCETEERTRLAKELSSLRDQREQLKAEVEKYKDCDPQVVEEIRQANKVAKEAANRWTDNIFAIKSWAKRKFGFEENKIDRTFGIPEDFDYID
UniProt Q6IN84: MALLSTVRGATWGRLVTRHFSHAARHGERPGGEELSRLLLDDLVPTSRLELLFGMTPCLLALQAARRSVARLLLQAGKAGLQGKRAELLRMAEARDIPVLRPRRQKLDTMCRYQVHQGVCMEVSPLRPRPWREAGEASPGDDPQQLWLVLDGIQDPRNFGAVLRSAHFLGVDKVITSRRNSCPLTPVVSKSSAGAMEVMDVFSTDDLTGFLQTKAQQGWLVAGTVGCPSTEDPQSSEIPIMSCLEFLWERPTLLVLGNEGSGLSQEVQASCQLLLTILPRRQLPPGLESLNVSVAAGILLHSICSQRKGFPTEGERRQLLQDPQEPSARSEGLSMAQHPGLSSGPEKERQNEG
UniProt Q9H3L0: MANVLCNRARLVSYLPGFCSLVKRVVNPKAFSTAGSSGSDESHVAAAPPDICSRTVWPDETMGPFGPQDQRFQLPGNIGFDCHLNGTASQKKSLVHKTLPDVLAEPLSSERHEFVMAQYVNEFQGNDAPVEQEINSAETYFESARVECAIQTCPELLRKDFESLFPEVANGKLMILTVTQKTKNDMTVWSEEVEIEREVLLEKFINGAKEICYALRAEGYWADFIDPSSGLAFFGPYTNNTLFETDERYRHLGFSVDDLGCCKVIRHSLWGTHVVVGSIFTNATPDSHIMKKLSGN
UniProt O75030: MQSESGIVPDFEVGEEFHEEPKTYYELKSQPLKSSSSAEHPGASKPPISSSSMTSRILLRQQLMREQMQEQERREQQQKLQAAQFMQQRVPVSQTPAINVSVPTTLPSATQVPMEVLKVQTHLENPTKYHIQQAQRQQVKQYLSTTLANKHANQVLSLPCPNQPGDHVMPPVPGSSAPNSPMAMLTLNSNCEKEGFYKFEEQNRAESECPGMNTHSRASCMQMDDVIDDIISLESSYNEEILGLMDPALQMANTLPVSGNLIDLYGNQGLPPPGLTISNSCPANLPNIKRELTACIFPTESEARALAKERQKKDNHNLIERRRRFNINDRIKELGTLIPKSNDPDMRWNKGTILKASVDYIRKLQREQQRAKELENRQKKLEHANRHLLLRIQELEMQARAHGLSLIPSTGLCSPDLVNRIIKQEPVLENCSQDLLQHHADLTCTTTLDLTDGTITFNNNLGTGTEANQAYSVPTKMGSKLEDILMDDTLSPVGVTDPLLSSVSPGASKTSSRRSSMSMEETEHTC
UniProt Q8TDZ2: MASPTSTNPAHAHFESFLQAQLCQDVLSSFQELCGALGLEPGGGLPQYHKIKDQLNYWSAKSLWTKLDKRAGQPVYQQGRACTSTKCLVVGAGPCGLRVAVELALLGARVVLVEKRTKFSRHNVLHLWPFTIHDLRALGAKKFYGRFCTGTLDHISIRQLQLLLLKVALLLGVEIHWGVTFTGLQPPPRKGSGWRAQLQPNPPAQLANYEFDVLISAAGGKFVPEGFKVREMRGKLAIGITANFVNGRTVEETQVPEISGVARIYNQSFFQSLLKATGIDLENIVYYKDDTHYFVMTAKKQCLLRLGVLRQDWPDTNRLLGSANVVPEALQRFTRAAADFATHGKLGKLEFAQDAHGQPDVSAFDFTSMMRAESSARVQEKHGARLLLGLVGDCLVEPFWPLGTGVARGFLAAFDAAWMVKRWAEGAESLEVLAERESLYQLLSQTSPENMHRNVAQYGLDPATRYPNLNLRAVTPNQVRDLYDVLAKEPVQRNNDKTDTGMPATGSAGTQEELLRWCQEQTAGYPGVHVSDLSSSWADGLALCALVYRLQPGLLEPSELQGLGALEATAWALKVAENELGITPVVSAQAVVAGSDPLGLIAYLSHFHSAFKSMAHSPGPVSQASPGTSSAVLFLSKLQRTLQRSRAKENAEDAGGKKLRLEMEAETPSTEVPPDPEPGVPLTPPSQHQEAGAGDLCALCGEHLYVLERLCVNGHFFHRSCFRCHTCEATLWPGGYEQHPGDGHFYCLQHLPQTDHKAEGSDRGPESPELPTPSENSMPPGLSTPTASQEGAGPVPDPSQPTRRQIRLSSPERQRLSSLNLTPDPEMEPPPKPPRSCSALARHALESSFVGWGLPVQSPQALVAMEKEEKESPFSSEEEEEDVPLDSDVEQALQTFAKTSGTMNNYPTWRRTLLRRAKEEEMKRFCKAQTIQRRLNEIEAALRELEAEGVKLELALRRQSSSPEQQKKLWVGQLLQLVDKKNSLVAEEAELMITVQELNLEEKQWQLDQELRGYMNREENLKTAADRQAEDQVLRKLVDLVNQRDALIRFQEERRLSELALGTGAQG

Experiments:
Assay in all cases: log2 fold change, soluble protein after heating vs DMSO (PISA); higher = thermal stabilisation; K562 cells, 10 uM, 30 min; active = over 0.2 and 3.5 SD of the protein, either way, in both replicates (recomputed)
[1] = compound: CC[C@@H]1C(=O)N(C)c2cnc(Nc3ccc(C(=O)NC4CCN(C)CC4)cc3OC)nc2N1C1CCCC1
How it was run: (§1)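 Soluble protein was defined as the supernatant after 21,000xg for 90 min. It came from K562 cells at 2×10^6 cells/mL given 10 μM compound for 30 min, heated in aliquots for 3 min across 48°C-58°C, pooled, and extracted in PBS with 0.5% NP-40 at 4°C, and was quantified by TMTpro 16plex LC-MS/MS with equalised channel sums. Thermal stability against control samples, from duplicates, is reported as log2 fold change.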

volasertib = compound: CC[C@@H]1C(=O)N(C)c2cnc(Nc3ccc(C(=O)N[C@H]4CC[C@H](N5CCN(CC6CC6)CC5)CC4)cc3OC)nc2N1C(C)C [volasertib]
How it was run: as §1

[2] = compound: CC[C@H](C)N1C=C(C2=C(C=C(C=C21)C3=CN=C(C=C3)N4CCNCC4)C(=O)NCC5=C(C=C(NC5=O)C)C)C
How it was run: as §1

epoxomicin = compound: CC[C@H](C)[C@@H](C(=O)N[C@@H]([C@@H](C)O)C(=O)N[C@@H](CC(C)C)C(=O)[C@]1(CO1)C)NC(=O)[C@H]([C@@H](C)CC)N(C)C(=O)C [epoxomicin]
How it was run: as §1

[3] = compound: CCn1cc(-c2ccnc3[nH]c(-c4cccc(CN(C)C)c4)cc23)c(-c2ccc(NC(=O)N(C)C)cc2)n1
How it was run: as §1

[4] = compound: CN(C)CC(=O)Nc1ccc2[nH]c(=O)c3ccccc3c2c1
How it was run: as §1

[5] = compound: CN1C2=C(C3=C1C(=O)N(N=C3)CC4=CC(=CC=C4)N)SC(=C2)S(=O)C
How it was run: as §1

[6] = compound: CN1CCC(CNc2ccc3ncc(-c4cccc(OC(F)(F)F)c4)n3n2)CC1
How it was run: as §1

saracatinib = compound: CN1CCN(CCOc2cc(OC3CCOCC3)c3c(Nc4c(Cl)ccc5c4OCO5)ncnc3c2)CC1 [saracatinib]
How it was run: as §1

sotrastaurin = compound: CN1CCN(c2nc(C3=C(c4c[nH]c5ccccc45)C(=O)NC3=O)c3ccccc3n2)CC1 [sotrastaurin]
How it was run: as §1

Tubastatin A = compound: CN1CCc2c(c3ccccc3n2Cc2ccc(C(=O)NO)cc2)C1 [Tubastatin A]
How it was run: as §1

[7] = compound: CNC(=O)C1=CC=CC=C1NC2=NC(=NC=C2Cl)NC3=C(C=C(C=C3)N4CCOCC4)OC
How it was run: as §1

defactinib = compound: CNC(=O)c1ccc(Nc2ncc(C(F)(F)F)c(NCc3nccnc3N(C)S(C)(=O)=O)n2)cc1 [defactinib]
How it was run: as §1

rucaparib = compound: CNCc1ccc(-c2[nH]c3cc(F)cc4c3c2CCNC4=O)cc1 [rucaparib]
How it was run: as §1

[8] = compound: CNc1nc(-c2ccc3c(N)n[nH]c3c2)cc(N2C[C@@H](C(=O)NC3CCCCC3)CC[C@H]2C)n1
How it was run: as §1

encorafenib = compound: COC(=O)N[C@@H](C)CNc1nccc(-c2cn(C(C)C)nc2-c2cc(Cl)cc(NS(C)(=O)=O)c2F)n1 [encorafenib]
How it was run: as §1

[9] = compound: COC(=O)[C@H](CCSC)NC(=O)C1=C(C=C(C=C1)NC[C@H](CS)N)C2=CC=CC=C2
How it was run: as §1

[10] = compound: CCn1c(C(=O)N(C2CC2)C2CC2)cc2c3c(ncn3C)c(Nc3cc(C)n(C)n3)nc21
How it was run: as §1

rosiglitazone = compound: CN(CCOC1=CC=C(C=C1)C[C@H]2C(=O)NC(=O)S2)C3=CC=CC=N3 (racemic) [rosiglitazone]
How it was run: as §1

alvocidib = compound: CN1CC[C@H](c2c(O)cc(O)c3c(=O)cc(-c4ccccc4Cl)oc23)[C@H](O)C1 [alvocidib]
How it was run: as §1

Measured: log2 fold change

MRPL46 (UniProt Q9H2W6)
inactive: [1] 0.209 | volasertib 0.302 | [2] 0.034 | epoxomicin 0.015 | [3] -0.04 | [4] 0.014 | [5] 0.061 | [6] 0.12 | saracatinib -0.071 | sotrastaurin -0.073 | Tubastatin A 0.037 | defactinib 0.043 | rucaparib 0.058 | [8] 0.115 | encorafenib 0.045 | [9] -0.026
active: [7] 0.29

MICOS10 (UniProt Q5TGZ0)
inactive: [1] 0.001 | volasertib -0.312 | [2] -0.175 | epoxomicin 0.103 | [10] 0.061 | [3] -0.02 | [4] -0.014 | rosiglitazone 0.034 | [6] -0.078 | sotrastaurin -0.068 | Tubastatin A -0.214 | [7] 0.037 | defactinib -0.019 | rucaparib -0.105 | encorafenib 0.055 | [9] 0.053

MMS19 isoform 8 (UniProt Q96T76)
inactive: [1] -0.102 | [2] 0.075 | epoxomicin 0.013 | [3] -0.052 | [4] 0.11 | [5] 0.051 | [6] -0.085 | saracatinib -0.013 | sotrastaurin -0.156 | Tubastatin A -0.071 | [7] 0.003 | defactinib -0.127 | rucaparib 0.052 | [8] -0.003 | encorafenib 0.099 | [9] -0.008
active: volasertib -0.43

MRNIP (UniProt Q6NTE8)
inactive: [1] -0.07 | volasertib -0.045 | [2] -0.344 | epoxomicin 0.019 | [10] 0.026 | [3] 0.209 | [4] -0.105 | [6] 0.005 | sotrastaurin -0.035 | Tubastatin A 0.117 | [7] -0.029 | defactinib -0.201 | rucaparib -0.095 | encorafenib 0.045 | [9] 0.066

MND1 (UniProt Q9BWT6)
inactive: [1] -0.081 | volasertib -0.175 | [2] -0.036 | epoxomicin 0.049 | [3] -0.076 | [4] -0.015 | [5] 0.04 | saracatinib 0.006 | sotrastaurin 0.036 | Tubastatin A -0.006 | [7] -0.029 | defactinib -0.021 | rucaparib 0.05 | [8] -0.059 | encorafenib -0.15 | [9] 0.023
active: [6] -0.468

MRM1 (UniProt Q6IN84)
inactive: [1] 0.193 | volasertib 0.138 | [2] -0.033 | epoxomicin -0.156 | [10] 0.052 | [4] -0.046 | rosiglitazone -0.054 | [5] 0.19 | saracatinib -0.041 | sotrastaurin -0.025 | alvocidib 0.16 | Tubastatin A 0.095 | [7] 0.112 | defactinib 0.118 | rucaparib 0.223 | [8] -0.073 | encorafenib 0.087 | [9] -0.013

MRPL50 (UniProt Q8N5N7)
inactive: [1] 0.026 | volasertib -0.029 | [2] -0.063 | epoxomicin 0.094 | [3] -0.044 | [4] 0.037 | [5] -0.043 | [6] 0.308 | saracatinib 0.148 | sotrastaurin -0.048 | Tubastatin A 0.133 | [7] -0.011 | defactinib 0.04 | rucaparib 0.063 | [8] -0.065 | encorafenib -0.01 | [9] 0.061

MIEF1 (UniProt L0R8F8)
inactive: [1] -0.028 | volasertib -0.076 | [2] -0.106 | epoxomicin 0.022 | [3] -0.065 | [4] -0.018 | [5] -0.028 | [6] -0.021 | saracatinib -0.068 | sotrastaurin -0.008 | Tubastatin A 0.041 | [7] 0.008 | defactinib -0.003 | rucaparib 0.024 | [8] -0.074 | encorafenib 0.008 | [9] 0.015

MMADHC (UniProt Q9H3L0)
inactive: [1] -0.024 | [2] 0.087 | [3] 0.03 | [4] 0.006 | [5] 0.047 | [6] 0.181 | saracatinib -0.044 | Tubastatin A 0.07 | [7] -0.011 | defactinib -0.061 | rucaparib 0.139 | [8] 0.062 | encorafenib -0.031 | [9] -0.011
active: volasertib -0.482

MITF (UniProt O75030)
inactive: [1] 0.014 | [2] 0.02 | [3] 0.044 | [4] -0.231 | [6] -0.046 | sotrastaurin -0.08 | [7] 0.034 | defactinib 0.111 | rucaparib -0.186 | encorafenib -0.058 | [9] 0.064

MICAL1 isoform 4 (UniProt Q8TDZ2)
inactive: volasertib -0.52 | [2] 0.107 | epoxomicin 0.239 | [10] 0.014 | [4] 0.005 | sotrastaurin -0.104 | alvocidib -0.044 | [7] 0.018 | defactinib -0.189 | [9] 0.082
